Results from PubChem BioAssay AID190 (DTP/NCI, 2004).
The list does not hold the whole screen: it is rich in T/C values a quarter to a half above the control, in often repeated tests (any T/C) and in doses without a T/C. Other doses and runs of a compound stand elsewhere. T/C is the treated group as % of the vehicle group. Some doses have a count of surviving animals in place of a T/C: the source files T/C as zero there, which appears to mark a toxic dose or a test without result, not a measured value. Some doses without a T/C left all or most animals alive at the check, yet need not have been tolerated: the source hardly ever lists a survival T/C far under the control, and the zero likely stands for such cases as well. Counts of survivors are from the toxicity check (mostly the fifth day) where no day follows; animals may have died later. Schedule codes are those of the source, read here as Q, the interval in days (D) or hours (H), X, the number of doses. Some entries hold several experiments; the results are listed from low to high. Where survival is the endpoint, this PubChem deposit counts one and a half times the control or more as active, and values a quarter to a half above the control carry no call in these data; other NCI protocols may use other cut-offs. Some T/C values carry the count of animals alive at the toxicity check (mostly the fifth day); where none is given, no animal had died by that day.

Tested on: AKR/Lw mice, AKR lymphoma ip, median survival T/C
Assay: NCI In Vivo Anticancer Drug Screen. Data for tumor model Lymphoma AKR (Transplanted) (intraperitoneal) in AKR/Lw mice
Settings: T/C endpoint: median survival time, higher T/C = longer survival
Procedure: The antitumor activity of compounds was measured in mice bearing transplantable tumors. Survival or tumor size were measured and the results are expressed as the measurement made in the treated group (T) divided by the measurement made in the vehicle treated control group (C). The tumor model used in this assay is Lymphoma AKR (Transplanted) (intraperitoneal) in AKR/Lw mice

[1] = dose: 40.0 mg/kg/injection, schedule: Q01DX001 (ip), vehicle: saline
[2] = dose: 40.0 mg/kg/injection, schedule: Q04DX003 (ip), vehicle: saline
[3] = dose: 80.0 mg/kg/injection, schedule: Q04DX003 (ip), vehicle: saline
[4] = dose: 100.0 mg/kg/injection, schedule: Q01DX001 (ip), vehicle: saline
[5] = dose: 200.0 mg/kg/injection, schedule: Q01DX001 (ip), vehicle: saline
[6] = dose: 400.0 mg/kg/injection, schedule: Q01DX001 (ip), vehicle: Klucel (hydroxypropylcellulose) (HPC)
[7] = dose: 100.0 mg/kg/injection, schedule: Q01DX001 (ip), vehicle: Klucel (hydroxypropylcellulose) (HPC)
[8] = dose: 200.0 mg/kg/injection, schedule: Q01DX001 (ip), vehicle: Klucel (hydroxypropylcellulose) (HPC)

CC[C@](O)(C(=O)O)c1cc2n(c(=O)c1CO)Cc1cc3ccccc3nc1-2
survivor count (dose: 0.02 mg/kg/injection, schedule: Q01DX005 (ip), vehicle: saline): 4 of 10
survivor count (dose: 0.05 mg/kg/injection, schedule: Q01DX005 (ip), vehicle: saline): 3 of 10
survivor count (dose: 0.1 mg/kg/injection, schedule: Q01DX005 (ip), vehicle: saline): 5 of 10
T/C (dose: 0.12 mg/kg/injection, schedule: Q01DX009 (ip), vehicle: saline): 127 % of control
T/C (dose: 0.25 mg/kg/injection, schedule: Q01DX009 (ip), vehicle: saline): 112 [9 of 10 alive], 113, 113 [9 of 10 alive], 129 [9 of 10 alive], 141 % of control
T/C (dose: 0.5 mg/kg/injection, schedule: Q01DX009 (ip), vehicle: saline): 93, 93 [9 of 10 alive], 97, 122 % of control [9 of 10 alive]
survivor count (dose: 1.0 mg/kg/injection, schedule: Q01DX009 (ip), vehicle: saline): 6 of 10 and 10 of 10
survivor count (dose: 1.5 mg/kg/injection, schedule: Q01DX009 (ip), vehicle: saline): 9 of 10 and 10 of 10
survivor count (dose: 2.0 mg/kg/injection, schedule: Q01DX009 (ip), vehicle: saline): 8 of 10
T/C (dose: 2.5 mg/kg/injection, schedule: Q04DX003 (ip), vehicle: saline): 92, 102, 104 [9 of 10 alive], 122 % of control
survivor count (dose: 3.0 mg/kg/injection, schedule: Q01DX009 (ip), vehicle: saline): 10 of 10
survivor count (dose: 4.0 mg/kg/injection, schedule: Q01DX009 (ip), vehicle: saline): 8 of 10
survivor count (dose: 5.0 mg/kg/injection, schedule: Q01DX009 (ip), vehicle: saline): 9 of 10 and 10 of 10
T/C (dose: 5.0 mg/kg/injection, schedule: Q04DX003 (ip), vehicle: saline, evaluated on day 45): 120 % of control
T/C (dose: 5.0 mg/kg/injection, schedule: Q04DX003 (ip), vehicle: saline, evaluated on day 60): 97, 102 [9 of 10 alive], 107, 122, 130 % of control
survivor count (dose: 5.0 mg/kg/injection, schedule: Q04DX003 (ip), vehicle: saline): 10 of 10
survivor count (dose: 6.0 mg/kg/injection, schedule: Q01DX009 (ip), vehicle: saline): 10 of 10
survivor count (dose: 7.5 mg/kg/injection, schedule: Q01DX009 (ip), vehicle: saline): 10 of 10
T/C (dose: 7.5 mg/kg/injection, schedule: Q04DX003 (ip), vehicle: saline): 125 and 138 % of control
T/C (dose: 10.0 mg/kg/injection, schedule: Q01DX001 (ip), vehicle: saline): 104, 107, 113, 113 [9 of 10 alive], 118 % of control
survivor count (dose: 10.0 mg/kg/injection, schedule: Q01DX009 (ip), vehicle: saline): 9 of 10 and 10 of 10
T/C (dose: 10.0 mg/kg/injection, schedule: Q04DX003 (ip), vehicle: saline, evaluated on day 45): 125 % of control
T/C (dose: 10.0 mg/kg/injection, schedule: Q04DX003 (ip), vehicle: saline, evaluated on day 60): 86, 97, 102, 104, 105, 125, 133 % of control
survivor count (dose: 10.0 mg/kg/injection, schedule: Q04DX003 (ip), vehicle: saline): 9 of 10
survivor count (dose: 15.0 mg/kg/injection, schedule: Q01DX009 (ip), vehicle: saline): 9 of 10
survivor count (dose: 15.0 mg/kg/injection, schedule: Q04DX003 (ip), vehicle: saline): 7 of 10 and 9 of 10
T/C (dose: 20.0 mg/kg/injection, schedule: Q01DX001 (ip), vehicle: saline): 113, 116, 116 [8 of 10 alive], 118 % of control
T/C (dose: 20.0 mg/kg/injection, schedule: Q04DX003 (ip), vehicle: saline, evaluated on day 45): 136 % of control
T/C (dose: 20.0 mg/kg/injection, schedule: Q04DX003 (ip), vehicle: saline, evaluated on day 60): 100, 108, 122 % of control
survivor count (dose: 20.0 mg/kg/injection, schedule: Q04DX003 (ip), vehicle: saline): 5 of 10, 7 of 10, 8 of 10, 9 of 10, 10 of 10
T/C (dose: 25.0 mg/kg/injection, schedule: Q01DX001 (ip), vehicle: saline): 125 [9 of 10 alive] and 141 % of control [9 of 10 alive]
survivor count (dose: 30.0 mg/kg/injection, schedule: Q01DX009 (ip), vehicle: saline): 10 of 10
survivor count (dose: 37.5 mg/kg/injection, schedule: Q01DX001 (ip), vehicle: saline): 10 of 10
T/C [1]: 136 % of control [9 of 10 alive]
survivor count [1]: 4 of 10
T/C [2]: 91 and 125 % of control
survivor count [2]: 4 of 10 and 8 of 10
survivor count (dose: 50.0 mg/kg/injection, schedule: Q01DX001 (ip), vehicle: saline): 5 of 10 and 6 of 10
survivor count (dose: 60.0 mg/kg/injection, schedule: Q04DX003 (ip), vehicle: saline): 8 of 10
survivor count (dose: 75.0 mg/kg/injection, schedule: Q01DX001 (ip), vehicle: saline): 5 of 10
T/C [3]: 86 and 125 % of control
survivor count [3]: 1 of 10 and 6 of 10
survivor count [4]: 5 of 10 and 7 of 10
survivor count (dose: 150.0 mg/kg/injection, schedule: Q01DX001 (ip), vehicle: saline): 5 of 10
survivor count [5]: 0 of 10

CN(C)c1nc(N(C)C)nc(N(C)C)n1
survivor count (dose: 320.0 mg/kg/injection, schedule: Q04DX003 (ip), vehicle: Klucel (hydroxypropylcellulose) (HPC)): 10 of 10
survivor count (dose: 640.0 mg/kg/injection, schedule: Q04DX003 (ip), vehicle: Klucel (hydroxypropylcellulose) (HPC)): 10 of 10
survivor count (dose: 1280.0 mg/kg/injection, schedule: Q04DX003 (ip), vehicle: Klucel (hydroxypropylcellulose) (HPC)): 9 of 10

CC(=O)N1C(=O)C2(c3ccccc31)c1cccc3c1C(=C1C(=O)OC(=O)C12)C(=O)N3C(C)=O (stereo unspecified)
survivor count [4]: 10 of 10

Nc1ccc(OCc2ccc(S(=O)(=O)F)c(Cl)c2)c(Cl)c1
survivor count (dose: 75.0 mg/kg/injection, schedule: Q01DX009 (ip), vehicle: Klucel (hydroxypropylcellulose) (HPC)): 10 of 10
survivor count (dose: 300.0 mg/kg/injection, schedule: Q01DX009 (ip), vehicle: Klucel (hydroxypropylcellulose) (HPC)): 8 of 10
survivor count [6]: 9 of 10

c1cc2cc3c(cc2cc1CC1NCCc2cc4c(cc21)OCO4)OCO3 (stereo unspecified)
survivor count (dose: 200.0 mg/kg/injection, schedule: Q04DX003 (ip), vehicle: Klucel (hydroxypropylcellulose) (HPC)): 9 of 10
survivor count (dose: 400.0 mg/kg/injection, schedule: Q04DX003 (ip), vehicle: Klucel (hydroxypropylcellulose) (HPC)): 1 of 10

COc1ccccc1N1C(N)=NC(N)=NC1(C)C
survivor count (dose: 16.0 mg/kg/injection, schedule: Q04DX003 (ip), vehicle: saline): 10 of 10
survivor count [5]: 0 of 10
survivor count (dose: 400.0 mg/kg/injection, schedule: Q01DX001 (ip), vehicle: saline): 0 of 10

CC1(C)N=C(N)N=C(N)N1c1cc(Cl)c(Cl)cc1Cl
survivor count (dose: 75.0 mg/kg/injection, schedule: Q01DX001 (ip), vehicle: Klucel (hydroxypropylcellulose) (HPC)): 4 of 10
survivor count [7]: 0 of 10
survivor count [8]: 0 of 10
survivor count [6]: 0 of 10

Cc1c(C(=O)O)cc2n(c1=O)Cc1cc3ccccc3nc1-2
survivor count (dose: 200.0 mg/kg/injection, schedule: Q04DX003 (ip), vehicle: saline with Tween-80): 10 of 10

CC(C)c1c[nH]c(=O)[nH]c1=O
survivor count [7]: 9 of 10

CC[CH](C)[Hg][c]1cccc2ccccc12 (stereo unspecified)
survivor count [6]: 5 of 10

COc1ccc(N2C(=O)CC(Sc3ccccc3N)C2=O)cc1 (stereo unspecified)
survivor count [7]: 10 of 10
survivor count [8]: 10 of 10
